# Measured values from US6635751B1, “Isolated nucleic acids encoding activated and suppressive forms of ATF6” (HSP Research Institute, Inc., priority 1998, dated 2003).
# Some entries share one result that the patent states for a list of compounds.
# Tested on: human GRP78 promoter
# Assay: Overexpression of pCGN-ATF6 deletion mutants with reporter pGL3-G78(-132) in HeLa cells, ERSE-mediated transcription
# Format: cell-based
# Details: without TM
# Protocol: HeLa cells in a 24-well plate were transiently transfected with a reporter plasmid pGL-G78(−132) capable of expressing firefly luciferase gene under the control of human GRP78 promoter, together with pCGN vector alone (Vec) or each of ATF6 expression plasmids. Transfected cells were treated with (closed bars) or without (open bars) 2 μg/ml tunicamycin (TM) for 16 hours prior to measuring luciferase activity. The relative activities are indicated as the mean±standard deviations (bars) from four independent experiments (triplicate determinations).
# Using HeLa cells co-transfected with the reporter plasmid pGL3-G78(−132) [see Example 1 (FIG. 6, line 2)] resulting from ligation of the firefly luciferase gene to downstream of the human GRP78 promoter ([−132 to +7], numbered on the basis of the translation initiation point taken as +1) and the expression plasmid for the ATF6 C-terminal deletion mutant of Example 10, the effects of each of the overexpressed C-terminal deletion mutants of ATF6 on ERSE-mediated transcriptional activation were evaluated.
# Next, in the same manner as in Example 13, the effect of the overexpression of each ATF6 transcription-activating domain deletion mutant on ERSE-mediated transcriptional activation was evaluated by co-transfection with the reporter plasmid pGL3-G78(−132).
row,Molecule,increased luciferase activity over that obtained with ATF(670) or ATF(402)
1,"ATF6(373): HA-tagged ATF6 amino acids 1st to 373rd; entire basic region and leucine zipper (protein, UniProt P18850 1-373, looked up, fragment, HA tag, HA-tagged ATF6 amino acids 1st to 373rd; entire basic region and leucine zipper) MGEPAGVAGTMESPFSPGLFHRLDEDWDSALFAELGYFTDTDELQLEAANETYENNFDNLDFDLDLMPWESDIWDINNQICTVKDIKAEPQPLSPASSSYSVSSPRSVDSYSSTQHVPEELDLSSSSQMSPLSLYGENSNSLSSAEPLKEDKPVTGPRNKTENGLTPKKKIQVNSKPSIQPKPLLLPAAPKTQTNSSVPAKTIIIQTVPTLMPLAKQQPIISLQPAPTKGQTVLLSQPTVVQLQAPGVLPSAQPVLAVAGGVTQLPNHVVNVVPAPSANSPVNGKLSVTKPVLQSTMRNVGSDIAVLRRQQRMIKNRESACQSRKKKKEYMLGLEARLKAALSENEQLKKENGTLKRQLDEVVSENQRLKVPS",≥ 5 fold
2,"ATF6(366): HA-tagged ATF6 amino acids 1st to 366th; basic region and majority of leucine zipper (protein, UniProt P18850 1-366, looked up, fragment, HA tag, HA-tagged ATF6 amino acids 1st to 366th; basic region and majority of leucine zipper) MGEPAGVAGTMESPFSPGLFHRLDEDWDSALFAELGYFTDTDELQLEAANETYENNFDNLDFDLDLMPWESDIWDINNQICTVKDIKAEPQPLSPASSSYSVSSPRSVDSYSSTQHVPEELDLSSSSQMSPLSLYGENSNSLSSAEPLKEDKPVTGPRNKTENGLTPKKKIQVNSKPSIQPKPLLLPAAPKTQTNSSVPAKTIIIQTVPTLMPLAKQQPIISLQPAPTKGQTVLLSQPTVVQLQAPGVLPSAQPVLAVAGGVTQLPNHVVNVVPAPSANSPVNGKLSVTKPVLQSTMRNVGSDIAVLRRQQRMIKNRESACQSRKKKKEYMLGLEARLKAALSENEQLKKENGTLKRQLDEVVSEN",≥ 5 fold
